From patent publication US12365650B2, “Deuterated organic compounds and uses thereof” (ENGRAIL THERAPEUTICS, INC., priority 2023, dated 2025)

Protein sequences, listed by entry. Tags and fused reporters are not part of them.
UniProt P28223, whole entry: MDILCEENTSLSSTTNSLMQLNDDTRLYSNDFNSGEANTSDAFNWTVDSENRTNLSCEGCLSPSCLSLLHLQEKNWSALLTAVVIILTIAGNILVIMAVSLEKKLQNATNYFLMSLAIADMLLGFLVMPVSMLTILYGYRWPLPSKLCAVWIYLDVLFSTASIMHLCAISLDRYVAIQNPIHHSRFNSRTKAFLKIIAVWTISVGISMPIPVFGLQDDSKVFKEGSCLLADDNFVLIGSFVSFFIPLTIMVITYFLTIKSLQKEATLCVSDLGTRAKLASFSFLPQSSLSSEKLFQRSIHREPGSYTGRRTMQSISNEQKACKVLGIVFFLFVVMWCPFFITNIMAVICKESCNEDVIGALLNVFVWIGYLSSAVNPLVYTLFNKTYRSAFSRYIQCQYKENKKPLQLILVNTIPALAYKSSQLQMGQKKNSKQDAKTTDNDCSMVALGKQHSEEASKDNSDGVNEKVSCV

Experiments:
5-HT2A receptor [1] = biological target: T1, 5-HT2A receptor (Homo sapiens, UniProt P28223); experiment: Radioligand binding competition, filtration binding assay, 5-HT2A ([3H]-DOI); parameters: expressed in transfected cells
5-HT2A receptor [2] = biological target: T1, 5-HT2A receptor; experiment: IP-One HTRF functional assay, 5-HT2A agonist mode; type: cell-based; parameters: expressed in transfected cells

Row | Compound | IC50 (5-HT2A receptor [1]) [nM] | Ki (5-HT2A receptor [1]) [nM] | EC50 (5-HT2A receptor [2]) [nM]
1 | [2H]c1c([2H])c([2H])c(CN2CC[C@@H](NC(=O)c3cc(Cl)c(NC)cc3OC)[C@H]2C)c([2H])c1[2H] [Ex. 1 (10), 5-Chloro-N-((2R,3R)-1-((pentadeuterophenyl)methyl)-2-methylpyrrolidin-3-yl)-2-methoxy-4-(methylamino)benzamide] | 24.1 | 9.4 | 5
2 | [2H]C([2H])([2H])Oc1cc(NC)c(Cl)cc1C(=O)N[C@@H]1CCN(Cc2ccccc2)[C@@H]1C [Ex. 2 (18), 5-Chloro-N-((2R,3R)-1-((phenyl)methyl)-2-methylpyrrolidin-3-yl)-2-trideuteromethoxy-4-(methylamino)benzamide] | 12.5 | 9.9 | 4.4
